Reference: patent US20120121589A1, “MODIFIED EGFR ECTODOMAIN” (WAYNE STATE UNIVERSITY, priority 2009, published 2012)
At least one compound was matched to its structure with a doubt left.

System: breast cancer cells (MDA-MB-468, SKBr-3, MDA-MB-453, and MDA-MB-231)
Assay: MTT growth assay in four breast cancer cell lines
Assay type: cell-based, human
Conditions: breast cancer cells expressing varying levels of EGFRs; FIGS. 13B and 13C

SMILES: Cc1nc(Nc2ncc(C(=O)Nc3c(C)cccc3Cl)s2)cc(N2CCN(CCO)CC2)n1 [Dasatinib, dasatinib]
- inhibition of growth of breast cancer cells, single agent: effective
